Experimental data as given in publication PMC5620139.

Target: recombinant human platelet derived growth factor-C (human), Q9NRA1
Assay: ELISA; cell-free binding assay; Maxisorp Nunc 96-well plates coated with 1 μg/ml PDGF-C in PBS, blocked with 2% BSA in PBS; receptor/hFc chimera 1 μg/ml, 37°C for 30 min in blocking buffer with 1 mM CaCl2 and MgCl2; detected with alkaline phosphatase-conjugated anti-human Fc goat IgG, OD 405 nm; both purified
Conditions: remark: other sources report otherwise

binding: no binding (tested: 1 μg/ml)
B1: VEGFR-2/hFc chimera, P35968 20-764 (Fc fusion)
chain: ASVGLPSVSLDLPRLSIQKDILTIKANTTLQITCRGQRDLDWLWPNNQSGSEQRVEVTECSDGLFCKTLTIPKVIGNDTGAYKCFYRETDLASVIYVYVQDYRSPFIASVSDQHGVVYITENKNKTVVIPCLGSISNLNVSLCARYPEKRFVPDGNRISWDSKKGFTIPSYMISYAGMVFCEAKINDESYQSIMYIVVVVGYRIYDVVLSPSHGIELSVGEKLVLNCTARTELNVGIDFNWEYPSSKHQHKKLVNRDLKTQSGSEMKKFLSTLTIDGVTRSDQGLYTCAASSGLMTKKNSTFVRVHEKPFVAFGSGMESLVEATVGERVRIPAKYLGYPPPEIKWYKNGIPLESNHTIKAGHVLTIMEVSERDTGNYTVILTNPISKEKQSHVVSLVVYVPPQIGEKSLISPVDSYQYGTTQTLTCTVYAIPPPHHIHWYWQLEEECANEPSQAVSVTNPYPCEEWRSVEDFQGGNKIEVNKNQFALIEGKNKTVSTLVIQAANVSALYKCEAVNKVGRGERVISFHVTRGPEITLQPDMQPTEQESVSLWCTADRSTFENLTWYKLGPQPLPIHVGELPTPVCKNLDTLWKLNATMFSNSTNDILIMELKNASLQDQGDYVCLAQDRKTKKRHCVVRQLTVLERVAPTITGNLENQTTSIGESIEVSCTASGNPPPQIMWFKDNETLVEDSGIVLKDGNRNLTIRRVRKEDEGLYTCQACSVLGCAKVEAFFIIEGAQEKTNLE

These are yes or no findings as the source states them, for the method shown.
